Assay: Measurement of concentration in the air over the working area during handling
Protocol: A phenyl vinyl sulfone/acetonitrile solution (concentration, 31.7% by weight; temperature, 40° C.) in a reaction vessel was drawn into another vessel by opening a bottom drawing cock of the reaction vessel. The concentration of phenyl vinyl sulfone in the air over a working area during this drawing work (an area within a distance of 100 cm from the drawing site) was measured to be 0.01 mg/m^3 at the maximum.
At room temperature, a reaction vessel was charged with 65 parts by weight of acetonitrile and then with 34.8 parts by weight of phenyl vinyl sulfone in powder form. The concentration of phenyl vinyl sulfone in the air over a working area during this charging work (an area within a distance of 100 cm from the charging site) was measured to be 0.12 mg/m^3 at the maximum. As compared with the work of handling a phenyl vinyl sulfone solution, the concentration of phenyl vinyl sulfone in the air was about 10 times as large as that one.

Compound: C=CS(=O)(=O)c1ccccc1 [phenyl vinyl sulfone]
- Concentration in the air over a working area (maximum) (charging of powder form at room temperature, within 100 cm from the charging site): ≤ 0.12 mg/m^3
- Concentration in the air over a working area (maximum) (drawing of acetonitrile solution (31.7% by weight, 40° C.), within 100 cm from the drawing site): ≤ 0.01 mg/m^3
- Concentration in the air, powder handling compared with solution handling (powder vs solution handling): about 10 times
